Experimental data from PubChem BioAssay AID192 (DTP/NCI, 2004).
The list is a part of this screen's results and no random one: it is rich in T/C values a quarter to a half above the control, in often repeated tests (any T/C) and in doses without a T/C. Further doses and runs are listed elsewhere. T/C: endpoint of the treated group in % of that of the vehicle group. Some doses have a count of surviving animals in place of a T/C: the source files T/C as zero there, which appears to mark a toxic dose or a test without result, not a measured value. Some survivor counts are full or nearly so, which does not show that the dose was tolerated: survival well below the control is almost never listed, so the zero probably covers shortened survival too. Counts of survivors are from the toxicity check (mostly the fifth day) where no day follows; animals may have died later. Schedule codes are those of the source, taken here to give the interval after Q, in days (D) or hours (H), and the number of doses after X. Marks such as (2×) stand for listed records that agree. Some entries hold several experiments; the values are given in rising order. Some structures stand for samples that the source files as different forms (salt, stereo form or complex); doses refer to the form tested. Where survival is the endpoint, this PubChem deposit counts one and a half times the control or more as active, and values a quarter to a half above the control carry no call in these data; other NCI protocols may use other cut-offs. Some T/C values are followed by the survivors on the day toxicity was checked, most often the fifth; where none is given, no animal had died by that day.

System: BDF1 mice, B16 melanoma ip, median survival T/C
Test: NCI In Vivo Anticancer Drug Screen. Data for tumor model B16 Melanoma (intraperitoneal) in B6D2F1 (BDF1) mice
Details: T/C endpoint: median survival time, higher T/C = longer survival
In short: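 Values are ratios of treated (T) to vehicle-control (C) measurements of survival or tumor size in tumor-bearing mice.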

[1] = dose: 100.0 mg/kg/injection, schedule: Q01DX009 (ip), vehicle: saline
[2] = dose: 200.0 mg/kg/injection, schedule: Q01DX009 (ip), vehicle: saline
[3] = dose: 400.0 mg/kg/injection, schedule: Q01DX009 (ip), vehicle: saline
[4] = dose: 50.0 mg/kg/injection, schedule: Q01DX009 (ip), vehicle: saline with Tween-80
[5] = dose: 12.5 mg/kg/injection, schedule: Q01DX009 (ip), vehicle: Klucel (hydroxypropylcellulose) (HPC)
[6] = dose: 200.0 mg/kg/injection, schedule: Q01DX009 (ip), vehicle: saline with Tween-80
[7] = dose: 200.0 mg/kg/injection, schedule: Q01DX009 (ip), vehicle: Klucel (hydroxypropylcellulose) (HPC)
[8] = dose: 6.25 mg/kg/injection, schedule: Q01DX009 (ip), vehicle: Klucel (hydroxypropylcellulose) (HPC)
[9] = dose: 50.0 mg/kg/injection, schedule: Q01DX009 (ip), vehicle: Klucel (hydroxypropylcellulose) (HPC)
[10] = dose: 100.0 mg/kg/injection, schedule: Q01DX009 (ip), vehicle: Klucel (hydroxypropylcellulose) (HPC)
[11] = dose: 400.0 mg/kg/injection, schedule: Q01DX009 (ip), vehicle: Klucel (hydroxypropylcellulose) (HPC)
[12] = dose: 25.0 mg/kg/injection, schedule: Q01DX009 (ip), vehicle: Klucel (hydroxypropylcellulose) (HPC)
[13] = dose: 25.0 mg/kg/injection, schedule: Q01DX009 (ip), vehicle: saline with Tween-80
[14] = dose: 100.0 mg/kg/injection, schedule: Q01DX009 (ip), vehicle: saline with Tween-80
[15] = dose: 400.0 mg/kg/injection, schedule: Q01DX009 (ip), vehicle: saline with Tween-80
[16] = dose: 12.5 mg/kg/injection, schedule: Q01DX009 (ip), vehicle: saline with Tween-80

Question: Which survivor count (dose: 50.0 mg/kg/injection, schedule: Q01DX009 (ip), vehicle: saline) does the source give for CCCC(Cc1ccccc1)N1CCCC1 (stereo not drawn) here?
Answer: 1 of 10

Question: What about the survivor count [1] of the same compound?
Answer: 0 of 10

Question: What about the survivor count [2] of the same compound?
Answer: 0 of 10

Question: What about the survivor count [3] of the same compound?
Answer: 0 of 10

Question: For Cn1nc(N)c2ncc(-c3ccc(Cl)cc3)nc21, which survivor count [4] is on record?
Answer: 10 of 10

Question: For C[As](C)Sc1ncccn1, which survivor count [5] is on record?
Answer: 3 of 10

Question: With COC(=Nc1ccccc1)SSC(C)C as the compound, how does the survivor count [6] read?
Answer: 0 of 10

Question: With CC1CN1CC(O)C(O)CN1CC1C (stereo not drawn) as the compound, how does the T/C (dose: 1.0 mg/kg/injection, schedule: Q01DX009 (ip), vehicle: saline) read?
Answer: 127 and 128 % of control

Question: What about the T/C (dose: 1.2 mg/kg/injection, schedule: Q01DX009 (ip), vehicle: saline) of the same compound?
Answer: 130 % of control

Question: What about the T/C (dose: 1.25 mg/kg/injection, schedule: Q01DX009 (ip), vehicle: saline) of the same compound?
Answer: 143 % of control

Question: What about the T/C (dose: 1.8 mg/kg/injection, schedule: Q01DX009 (ip), vehicle: saline) of the same compound?
Answer: 135 % of control

Question: What about the survivor count (dose: 2.5 mg/kg/injection, schedule: Q01DX009 (ip), vehicle: saline) of the same compound?
Answer: 9 of 10

Question: What about the survivor count (dose: 4.0 mg/kg/injection, schedule: Q01DX009 (ip), vehicle: saline) of the same compound?
Answer: 10 of 10 (2×)

Question: And the survivor count (dose: 5.0 mg/kg/injection, schedule: Q01DX009 (ip), vehicle: saline)?
Answer: 10 of 10

Question: And the survivor count (dose: 8.0 mg/kg/injection, schedule: Q01DX009 (ip), vehicle: saline)?
Answer: 10 of 10

Question: How did the survivor count (dose: 5.0 mg/kg/injection, schedule: Q04DX003 (ip), vehicle: Klucel (hydroxypropylcellulose) (HPC)) turn out when Cc1cc(=O)[nH]c2c1C(=O)c1c(C)cc(=O)n(C)c1C2=O was run?
Answer: 10 of 10

Question: CCCCCCCCC1CCC(N)CC1 (stereo not drawn) was tested. Which survivor count [7] did it give?
Answer: 10 of 10

Question: For O=C(Nc1ccc(C(=O)O)cc1)Oc1ccc(N(CCCl)CCCl)cc1, which T/C [8] is on record?
Answer: 130 % of control

Question: What about the T/C (dose: 6.25 mg/kg/injection, schedule: Q01DX009 (ip), vehicle: saline with Tween-80) of the same compound?
Answer: 137 % of control

Question: What about the T/C [5] of the same compound?
Answer: 125 % of control

Question: And the survivor count [9]?
Answer: 10 of 10

Question: And the survivor count [4]?
Answer: 10 of 10

Question: Which survivor count [10] does the source give for ClCCCCCCCCCCc1ccccc1 here?
Answer: 10 of 10

Question: What about the survivor count [7] of the same compound?
Answer: 10 of 10

Question: And the survivor count [11]?
Answer: 10 of 10

Question: With COC(=O)[C@H]1[C@H]2C[C@@H]3c4[nH]c5cc(OC)ccc5c4CCN3C[C@H]2C[C@@H](OC(=O)/C=C/c2cc(OC)c(OC)c(OC)c2)[C@@H]1OC as the compound, how does the survivor count (dose: 0.09 mg/kg/injection, schedule: Q01DX009 (ip), vehicle: Klucel (hydroxypropylcellulose) (HPC)) read?
Answer: 10 of 10

Question: What about the survivor count (dose: 0.19 mg/kg/injection, schedule: Q01DX009 (ip), vehicle: Klucel (hydroxypropylcellulose) (HPC)) of the same compound?
Answer: 10 of 10

Question: And the survivor count (dose: 3.12 mg/kg/injection, schedule: Q01DX009 (ip), vehicle: Klucel (hydroxypropylcellulose) (HPC))?
Answer: 10 of 10

Question: And the survivor count [8]?
Answer: 10 of 10

Question: And the survivor count [5]?
Answer: 10 of 10

Question: And the survivor count [12]?
Answer: 8 of 10

Question: What about the survivor count [9] of the same compound?
Answer: 7 of 10

Question: What does the source list for ClCC[N+]12CC[N+](CCCl)(CC1)C2?
Answer: T/C [13]: 136 % of control [9 of 10 alive]; T/C [14]: 146 % of control; T/C [1]: 139 % of control; survivor count [6]: 9 of 10 and 10 of 10; survivor count [2]: 10 of 10; survivor count [15]: 4 of 10

Question: With CC(=O)Oc1cc(C)c(OC(C)=O)c2ccccc12 as the compound, how does the survivor count [7] read?
Answer: 0 of 10

Question: How did the survivor count [10] turn out when Cc1cc(C)c(NC(=O)Nc2cccc3ccccc23)c(C)c1 was run?
Answer: 9 of 10

Question: Nc1nc(=S)c2[nH]c(N=Nc3ccc(S(=O)(=O)Nc4ccccn4)cc3)nc2[nH]1 was tested. Which survivor count [8] did it give?
Answer: 10 of 10

Question: What about the survivor count [5] of the same compound?
Answer: 10 of 10

Question: And the survivor count [12]?
Answer: 10 of 10

Question: What about the survivor count [9] of the same compound?
Answer: 10 of 10

Question: And the survivor count [10]?
Answer: 10 of 10

Question: CC(C)(C)OC(=O)NC(N)=NCCCC(NC(=O)OC(C)(C)C)C(=O)O (stereo not drawn) was tested. Which survivor count [15] did it give?
Answer: 10 of 10

Question: NC(=O)CCC(N)C(=O)O.[Cl-].[Cl-].[Cl-].[Cl-].[Pt+2] (stereo not drawn) was tested. Which T/C (dose: 6.25 mg/kg/injection, schedule: Q01DX009 (ip), vehicle: water) did it give?
Answer: 125 % of control

Question: What does the source list for COc1ccc2c(c1O)-c1cccc3c1[C@@H](C2)N(CCCl)CC3?
Answer: survivor count (dose: 32.0 mg/kg/injection, schedule: Q01DX009 (ip), vehicle: saline): 2 of 10 and 10 of 10; survivor count (dose: 64.0 mg/kg/injection, schedule: Q01DX009 (ip), vehicle: saline): 0 of 10 and 1 of 10

Question: What does the source list for CN=S(=O)(OCCCCCOS(=O)(=NC)c1ccccc1)c1ccccc1 (stereo not drawn)?
Answer: T/C (dose: 12.0 mg/kg/injection, schedule: Q01DX009 (ip), vehicle: saline with Tween-80): 134 % of control; survivor count (dose: 48.0 mg/kg/injection, schedule: Q01DX009 (ip), vehicle: saline with Tween-80): 10 of 10; T/C [4]: 129 % of control; survivor count [14]: 6 of 10; survivor count [6]: 3 of 10; survivor count [15]: 0 of 10

Question: What does the source list for O=c1[nH]cc(B(O)O)c(=O)[nH]1?
Answer: T/C [1]: 136 % of control; T/C [3]: 135 % of control

Question: For O=S(=O)(O)CNc1cc(Cl)cc(Cl)c1, which survivor count [11] is on record?
Answer: 10 of 10

Question: With CCCCCCC(=O)CCCC(C)CCCC(C)C (stereo not drawn) as the compound, how does the survivor count [11] read?
Answer: 8 of 10

Question: With N=c1ccn2c(n1)OC1C(O)C(CO)OC12 (stereo not drawn) as the compound, how does the T/C [1] read?
Answer: 126 % of control

Question: What about the T/C [2] of the same compound?
Answer: 128 % of control

Question: And the survivor count (dose: 800.0 mg/kg/injection, schedule: Q01DX009 (ip), vehicle: saline sonified)?
Answer: 6 of 6

Question: And the survivor count (dose: 800.0 mg/kg/injection, schedule: Q01DX009 (ip), vehicle: saline)?
Answer: 5 of 8 and 10 of 10

Question: What does the source list for CC(=O)C1=CC(=O)NC(=O)C1C(=O)CC(C)C (stereo not drawn)?
Answer: survivor count (dose: 1.56 mg/kg/injection, schedule: Q01DX009 (ip), vehicle: Klucel (hydroxypropylcellulose) (HPC)): 10 of 10; survivor count [8]: 10 of 10

Question: How did the T/C [1] turn out when COc1cc(-c2ccc(Nc3ccccc3C(=O)O)c(OC)c2)ccc1Nc1ccccc1C(=O)O was run?
Answer: 126 % of control

Question: What about the T/C [2] of the same compound?
Answer: 126 % of control

Question: What about the survivor count [3] of the same compound?
Answer: 9 of 10

Question: Which results are given for Cc1c2cccc(Sc3ccccc3)c2c2c3c(cccc13)[S+](c1ccccc1)C2 (stereo not drawn)?
Answer: survivor count [16]: 9 of 10; survivor count [13]: 1 of 10; survivor count [4]: 2 of 10; survivor count [14]: 0 of 10

Question: With CC[C@@]1(O)C(=O)OCc2c1cc1n(c2=O)Cc2cc3cc(OC)ccc3nc2-1 as the compound, how does the T/C (dose: 0.2 mg/kg/injection, schedule: Q01DX009 (ip), vehicle: other) read?
Answer: 146 % of control [9 of 10 alive]

Question: And the survivor count (dose: 1.57 mg/kg/injection, schedule: Q01DX009 (ip), vehicle: other)?
Answer: 6 of 10

Question: And the survivor count (dose: 3.13 mg/kg/injection, schedule: Q01DX009 (ip), vehicle: other)?
Answer: 4 of 10

Question: And the survivor count (dose: 6.25 mg/kg/injection, schedule: Q01DX009 (ip), vehicle: other)?
Answer: 0 of 10

Question: For COc1ccc(/C=C(\C)[N+](=O)[O-])cc1OC, which survivor count (dose: 50.0 mg/kg/injection, schedule: Q01DX009 (ip), vehicle: other) is on record?
Answer: 9 of 10

Question: What about the survivor count (dose: 100.0 mg/kg/injection, schedule: Q01DX009 (ip), vehicle: other) of the same compound?
Answer: 8 of 10

Question: How did the survivor count [14] turn out when CC(C)N(C(=O)c1ccc(C(=O)N(c2ccccc2)C(C)C)cc1)c1ccccc1 was run?
Answer: 10 of 10

Question: What about the survivor count [6] of the same compound?
Answer: 10 of 10

Question: And the survivor count [15]?
Answer: 10 of 10

Question: How did the survivor count [16] turn out when COc1cc2c(Cc3ccc(OC)c(OC)c3)[n+](Cc3ccccc3)ccc2cc1NCc1ccccc1 was run?
Answer: 0 of 10

Question: What about the survivor count [13] of the same compound?
Answer: 0 of 10

Question: What does the source list for NC(Cn1cc(N(CCCl)CCCl)c(=O)[nH]c1=O)C(=O)O (stereo not drawn)?
Answer: T/C (dose: 24.0 mg/kg/injection, schedule: Q01DX009 (ip), vehicle: saline): 129 % of control; survivor count (dose: 48.0 mg/kg/injection, schedule: Q01DX009 (ip), vehicle: saline): 10 of 10

Question: With Cc1cc2nc3[nH]c4ccccc4c3nc2cc1C as the compound, how does the survivor count [14] read?
Answer: 8 of 10

Question: And the survivor count [15]?
Answer: 10 of 10

Question: COc1ccc(OC)c(/C=C/c2ccnc3ccccc23)c1 was tested. Which T/C (dose: 400.0 mg/kg/injection, schedule: Q01DX009 (ip), vehicle: saline sonified) did it give?
Answer: 126 % of control
